Experimental data taken from paper doi:10.1101/2021.05.25.445488.
These are yes or no findings as the source states them, for the method shown. In cells and extracts the contact can be indirect. A result given as binding can be weak or reduced; the word gives no strength.

Protein sequences, listed by entry. Tags and fused reporters are not part of them.
UniProt O75386: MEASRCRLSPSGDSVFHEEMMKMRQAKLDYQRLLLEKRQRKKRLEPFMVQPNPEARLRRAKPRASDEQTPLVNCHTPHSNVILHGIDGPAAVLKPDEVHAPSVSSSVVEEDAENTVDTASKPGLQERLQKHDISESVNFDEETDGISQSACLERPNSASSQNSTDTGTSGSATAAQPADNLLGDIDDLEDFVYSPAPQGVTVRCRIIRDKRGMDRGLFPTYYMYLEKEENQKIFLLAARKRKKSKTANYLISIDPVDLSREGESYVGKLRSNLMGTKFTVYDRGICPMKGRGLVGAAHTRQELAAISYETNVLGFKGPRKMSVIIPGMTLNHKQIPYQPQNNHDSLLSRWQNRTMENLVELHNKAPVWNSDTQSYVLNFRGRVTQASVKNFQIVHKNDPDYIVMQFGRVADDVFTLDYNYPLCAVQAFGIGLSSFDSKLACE

Molecular target: GST-TULP3 full length (human) (UniProt O75386)
Assay: pull-down

| binding | Substance |
| --- | --- |
| binds | Myc-ARL13B Δ1 (deletion of 4 conserved aa preceding the palmitoylation site) (from UniProt Q3SXY8-1) |
| binds weakly | Myc-ARL13B Δ1,2 (double deletion mutant in the full-length protein) (from UniProt Q3SXY8-1) |
| binds | Myc-ARL13B Δ2 (deletion of seven conserved aa following the palmitoylation site) (from UniProt Q3SXY8-1) |
| binds weakly | Myc-ARL13B Δ19 (helix deleted) (from UniProt Q3SXY8-1) (domain or fragment) |
